Assay [1] has as its target T1, human complement protein C5 (human, UniProt P01031 19-1676).
T1 construct: Native C5 is a two-chain protein made from one precursor; also called hC5; human C5
Briefly: BLI, VHH-His on anti-penta-His tips, 50 nM C5. (In general: BLI is a label-free optical method that tracks binding on a fibre tip over time.)

Amino acid sequences for entries named in this document (tags omitted). Residues count along the entry.
UniProt P01031, residues 19-1676: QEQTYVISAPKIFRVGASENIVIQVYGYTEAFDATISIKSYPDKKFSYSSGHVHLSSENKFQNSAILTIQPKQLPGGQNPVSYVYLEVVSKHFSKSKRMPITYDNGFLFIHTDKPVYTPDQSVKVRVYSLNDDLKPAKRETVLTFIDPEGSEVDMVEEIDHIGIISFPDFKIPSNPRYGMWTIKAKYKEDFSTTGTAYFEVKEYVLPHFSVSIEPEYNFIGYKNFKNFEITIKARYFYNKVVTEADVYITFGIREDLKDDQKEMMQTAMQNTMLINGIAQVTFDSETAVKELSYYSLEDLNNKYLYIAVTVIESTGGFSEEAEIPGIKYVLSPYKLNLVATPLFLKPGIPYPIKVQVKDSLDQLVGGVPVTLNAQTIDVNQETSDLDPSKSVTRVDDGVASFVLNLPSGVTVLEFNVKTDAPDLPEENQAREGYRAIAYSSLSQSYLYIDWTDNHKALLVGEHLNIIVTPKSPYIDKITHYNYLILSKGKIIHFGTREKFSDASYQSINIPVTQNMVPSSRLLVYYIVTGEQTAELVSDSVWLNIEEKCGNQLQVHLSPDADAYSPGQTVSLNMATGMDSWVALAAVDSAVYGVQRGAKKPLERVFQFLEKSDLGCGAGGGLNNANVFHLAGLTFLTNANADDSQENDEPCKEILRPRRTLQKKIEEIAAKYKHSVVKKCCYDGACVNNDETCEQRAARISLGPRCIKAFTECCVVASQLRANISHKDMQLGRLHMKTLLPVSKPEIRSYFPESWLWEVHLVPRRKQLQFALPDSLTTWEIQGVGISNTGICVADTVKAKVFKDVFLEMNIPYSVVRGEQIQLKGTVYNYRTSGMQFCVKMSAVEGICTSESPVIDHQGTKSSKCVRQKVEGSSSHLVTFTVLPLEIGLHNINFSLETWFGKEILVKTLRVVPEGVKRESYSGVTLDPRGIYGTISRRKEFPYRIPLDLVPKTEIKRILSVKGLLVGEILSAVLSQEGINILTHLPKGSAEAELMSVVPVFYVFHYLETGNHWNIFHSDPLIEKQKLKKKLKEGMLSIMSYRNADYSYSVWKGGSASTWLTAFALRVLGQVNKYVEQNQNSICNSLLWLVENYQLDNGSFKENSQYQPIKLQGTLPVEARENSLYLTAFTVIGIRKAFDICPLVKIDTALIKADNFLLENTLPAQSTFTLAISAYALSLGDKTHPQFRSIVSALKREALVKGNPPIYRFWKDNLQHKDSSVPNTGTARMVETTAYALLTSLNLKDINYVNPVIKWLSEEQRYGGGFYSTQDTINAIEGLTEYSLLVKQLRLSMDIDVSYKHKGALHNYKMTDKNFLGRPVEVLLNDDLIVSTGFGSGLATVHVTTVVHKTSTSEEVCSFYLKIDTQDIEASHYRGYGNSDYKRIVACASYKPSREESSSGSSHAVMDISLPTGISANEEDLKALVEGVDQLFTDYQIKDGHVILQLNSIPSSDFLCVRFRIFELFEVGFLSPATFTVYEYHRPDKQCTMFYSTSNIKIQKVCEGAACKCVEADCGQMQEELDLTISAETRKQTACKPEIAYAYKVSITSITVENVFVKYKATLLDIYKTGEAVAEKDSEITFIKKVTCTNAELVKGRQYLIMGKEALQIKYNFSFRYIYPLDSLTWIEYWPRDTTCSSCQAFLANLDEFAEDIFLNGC

Assay [2] deals with cynomolgus monkey (cyno) complement protein C5 (cynomolgus monkey). Put plainly: BLI, VHH-His on anti-penta-His tips, 50 nM C5.

These are yes or no findings as the source states them, for the method shown. Some entries that bind do so weakly or less than the wild type.

Consider 30 molecules from US20250163138A1 (Alexion, published 2025).

B1: LCP0306 (VHH, not shown: small tags and cut ends)
VHH: EVQLVESGGGLVQAGGSLRLSCAASKGAFNINVMAWYRQAPGKQRELVARVALGGTTDYADSVKGRFTISRNNAQDTVYLQMNSLKPEDTAVYYCNVLLDRGVRGSYAYWGQGTQVTVSS
As to B1, the binding result in assay [1] and in assay [2] was “binds” in each case.

B2: LCP0139 (VHH, not shown: small tags and cut ends)
VHH: EVQLVESGGGLVQAGESLRLSCAASGRTSDLYVVGWFRQTPGKEREFVAGIAWTGDASYYADSVEGRFTIARDNAENRIDLQMTSLKPEDTAVYYCAADSRARFERQRYNDMNYWGQGTQVTVSS
In the case of B2, the binding result in assay [1] is given as “binds”.

B3: LCP0311 (VHH, not shown: small tags and cut ends)
VHH: EVQLVESGGGMVQPGGSLRLSCVVSGASGNIDFVTVGWHRQAPGKHREMVAVITGDGTRNYRDSVKGRFSISRDNAKNTIYLQMNSLKPEDTAVYYCYMSNPISSWGQGTQVTVSS
For the molecule B3, the binding result in assay [1] and in assay [2] was “binds” each time.

B4: LCP0089 (VHH, not shown: small tags and cut ends)
VHH: EVQLVESGGGLVQAGGSLRLSCVVSGRAIDRNAMGWFRQAPGKERESVAAISASSGNTYYSDSVTGRFTISRDNTKNTVYLQMNSLKPEDTAVYYCAAGSRGSWYLFDRREYDYWGQGTQVTVSS
Turning to B4, the binding entry in assay [1] is listed as “binds”.

B5: LCP0098 (VHH, not shown: small tags and cut ends)
VHH: EVQLVESGGDLVQAGGSLRLSCVASRSISSAMNWYRQPPGKQRELVALITRGFNTNYADSVKGRFTISRDNAKNTVYLQMNSLKPEDTGVYYCNSLNYWGQGTQVTVSS
In the case of B5, in assay [1], the binding result was “binds”.

B6: LCP0112 (VHH, not shown: small tags and cut ends)
VHH: EVQLVESGGGLVQAGGSLTLSCAASGRTFSSYGIGWFRQAPGKEREFVAAISRTGQTTHYADSIRFTISRDNAKNTVYLQMNSLKPEDTAVYYCAARTGGPIYGSEYHYWGQGTQVTVSS
Regarding B6, in assay [1], the binding result was “binds”.

B7: LCP0303 (VHH, not shown: small tags and cut ends)
VHH: EVQLVESGGGSVQAGGSLRLTCTASGNVRSIFTMAWYRQAPGKQRELVASAAKGGDTYYADSAKGRFTISRDDAKAIVSLQMNSLKPEDTAVYYCKTDGRPWFSEDYWGQGTQVTVSS
Regarding B7, the binding result in assay [1] and in assay [2] was “binds” each time.

B8: LCP0145 (VHH, not shown: small tags and cut ends)
VHH: EVQLVESGGGLVQAGGSLRLSCVASEDAFKTDTLGWFRQAPGEEREFVAAFVWAGGPFYADSVKGRFTISMDEDRNTVYLQMNSLKPEDTGVYYCAASLSRLRVGEITPRHMNYWGQGTQVTVSS
For the molecule B8, in assay [1], the binding entry is “binds”.

B9: LCP0132 (VHH, not shown: small tags and cut ends)
VHH: EVQLVESGGGLVQPGGSLRLSCEASGISLNDYNMGWFRQAPGKDREIVAALSRRSHGIYQSDSVKYRFSISRDNTKNMVSLQMDSLRPEDTAVYYCAADGDPYFTGRDMNPEYWGQGTQVTVSS
B9: the binding result in assay [1] is “binds”.

B10: LCP0310 (VHH, not shown: small tags and cut ends)
VHH: EVQLVESGGGLVQAGGSLRLSCVASGSAFYVGPMAWYRQAPGKERESVASITKGGITNYADSVKGRFTISRDNAKNTVYLQMNSLKPEDTDVYVCNARVKLQEDRLFRDYWGQGTQVTVSS
Turning to B10, the binding entry in assay [1] and in assay [2] was “binds” throughout.

B11: LCP0304 (VHH, not shown: small tags and cut ends)
VHH: EVQLVESGGGLVQVGDSMRLSCAVFGNIFTRDPVMWFRQPPGKQREWVATITPSGFANYADSVKGRFTISRYAANNTVHLQMNSLKPEDTGVYFCNFGTYWGQGTQVTVSS
On to B11, for which the binding entry in assay [1] and in assay [2] was “binds” throughout.

B12: LCP0152 (VHH, not shown: small tags and cut ends)
VHH: EVQLVESGGGLEQAGGSLRLSCTASGGTDSIYQMGWFRQTPGKEREFVAAINWNYGGAYYPDSVKGRFTISRDKAKNIGFLQMNSLKPEDTAVYYCATSQTSVDAFSVPITTARRYQYWGQGTQVTVSS
B12: in assay [1], the binding result is listed as “binds”.

B13: LCP0299 (VHH, not shown: small tags and cut ends)
VHH: EVQLVESGGGLVQAGGSLRLSCGASGRISDINVMGWYRQAPGKQREMVADIDIRGYTNYADSVKGRFTVSRDNAETMYLEMNSLKPEDTAVYRCNALTSRDWGTGKYVYWGQGTQVTVSS
For B13, the binding entry in assay [1] and in assay [2] was “binds” throughout.

B14: LCP0301 (VHH, not shown: small tags and cut ends)
VHH: EVQLVESGGGVVRAGGSLKLSCTAAGTDINIVTVGWHRQAPGKHRELVATIVGSGSRTNYADSVKGRFTISRDNPKNTVYLQMNSLKPEDTAVYYCYATSIGWGQGTQVTVSS
As to B14, the binding entry in assay [1] and in assay [2] was “binds” throughout.

B15: LCP0104 (VHH, not shown: small tags and cut ends)
VHH: EVQLVESGGGLVQAGDSLRLSCAASGRPFSSYTMGWFRQAPGKERDFVATISWSGGIKYYADSVEGRFSISRDNAKNMVYLQMNSLKPEDTAVYYCAATELRTWSRQTFEYDYWGQGTQVTVSS
Turning to B15, the binding result in assay [1] is listed as “binds”.

B16: LCP0086 (VHH, not shown: small tags and cut ends)
VHH: EVQLVESGGGLVQAGESLRLSCAASGSISAINAMGWYRQAPGKQREFVADITRAGVSDYADAVKGRFTISRDNAKNTFYLQMNDLKPEDTAVYYCDALLIAGGVYWGQGTQVTVSS
As to B16, the binding result in assay [1] was “binds”.

B17: LCP0298 (VHH, not shown: small tags and cut ends)
VHH: EVQLVESGGGVVQPGGSLRLSCVVSGSRFSLDTVGWHHQAPGKLRELVARIRDDGDTMYVASVKGRFIISRDDAKNTVYLQMNSLKPEDTGVYYCYFSRNGAWGQGTQVTVSS
Regarding B17, the binding entry in assay [1] and in assay [2] was “binds” in each case.

B18: LCP0088 (VHH, not shown: small tags and cut ends)
VHH: EVQLVESGGGLVQAGGSLRLSCTASGRTISTTVMGWFRQAPGKEREFVAAVHWGDGNTVYADSVKGRFTISRDDAKNTVYLQLNYLKPEDTSVYYCAARPPTYVGTSRNSRSYDYWGQGTQVTVSS
Regarding B18, the binding entry in assay [1] and in assay [2] was “binds” throughout.

B19: LCP0128 (VHH, not shown: small tags and cut ends)
VHH: EVQLVESGGGLVQAGGSLRLSCTASGRTISTTVMGWFRQAPGKEREFVAAVHWGDESTVYADSVKGRFTISRDNAKNTVYLQMNYLKPEDTAVYYCAARPPTYVGTSRSSRAYDYWGQGTQVTVSS
On to B19, for which the binding result in assay [1] is “binds”.

B20: LCP0309 (VHH, not shown: small tags and cut ends)
VHH: EVQLVESGGGLVQAGGSLRLSCAASGRTYSSYVIGWFRQAPGKEREFVASIRWAGGDSHYQESVKGRSTISKDNARNTVYLQMNSLKPEDTAVYYCAGAAPVPGQSYEWSSWGQGTQVTVSS
B20: the binding result in assay [1] and in assay [2] was “binds” in each case.

B21: LCP0313 (VHH, not shown: small tags and cut ends)
VHH: EVQLVESGGGLVQAGGSLRLSCAASGRTYGSYVIGWFRQAPGKEREFVASIRWAGGDSHYGDPLKGRSTISKDNAKNTVYLQMNSLKPEDAAVYYCAGAAPVPGSSYEWTNWGQGTQVTVSS
As for B21, the binding result in assay [1] and in assay [2] was “binds” each time.

B22: LCP0300 (VHH, not shown: small tags and cut ends)
VHH: EVQLVESGGDLVQVGGSLRLSCAFPGSMSSRNSVNWYRQPPGKQREWVATISVSGFTQYADSAKGRFTISRDSAKNTVHLQMNSLKPEDTGVYYCNYMDYWGQGTQVTVSS
On to B22, for which the binding result in assay [1] and in assay [2] was “binds” throughout.

B23: LCP0113 (VHH, not shown: small tags and cut ends)
VHH: EVQLVESGGGLVQAGDSLTLSCAASGRPFSSLTMGWFRQAPGKGREFVATTSWSGDIKYYADFVKGRFTISRDNAKNMVYLQMNSLKPEDTAVYYCAATLLRTWSRQTNEYEYWGQGTQVTVSS
With B23, the binding result in assay [1] is listed as “binds”.

B24: LCP0138 (VHH, not shown: small tags and cut ends)
VHH: EVQLVESGGGSVPAGGSLRLSCAAFGFTFDNYAIAWFRQAPGKEREGVSCLSTNDGETYYADSVKGRFTISSDHAKNTVYLQMDSLRPEDTAVYYCAAAEGSWCHKYEYDYWGQGTQVTVSS
With B24, the binding entry in assay [1] is on record as “binds”.

B25: LCP0090 (VHH, not shown: small tags and cut ends)
VHH: EVQLVESGGGLVQAGGSLRLTCTASETSFDINVMGWYRQAPGKQRELVAIITASGNTEYADSAKGRFTISRDNTKNTVAMQMNNLKPDDTAVYYCYVLLSGAVSGVYAHWGQGTQVTVSS
Consider B25, for which the binding entry in assay [1] and in assay [2] was “binds” throughout.

B26: LCP0081 (VHH, not shown: small tags and cut ends)
VHH: EVQLVESGGGLVQTGGSLRLSCAASTSGSDFSGKKMAWYRQAPGNGREFVAIIFSNKVTDYADSVKGRFTISRDNAKKTVYLQMSSLTPTDTAVYYCHDQEISWGQGTQVTVSS
Consider B26, for which, in assay [1], the binding entry is on record as “binds”.

B27: LCP0314 (VHH, not shown: small tags and cut ends)
VHH: EVQLVESGGGLVQAGGSLRLSCAASGSISSVNTMGWYRQAPGKQRELVAFITSGDDTNYADSMKGRFTISRDNAKNTLYLQMNSLKPEDTAVYYCVATLGRSSSGTYTYWGQGTQVTVSS
As to B27, the binding entry in assay [1] and in assay [2] was “binds” each time.

B28: LCP0111 (VHH, not shown: small tags and cut ends)
VHH: EVQLVESGGGLVQPGGSLRLSCAASGFPFSLYDMGWYRQAPEKQRESVAIITQSGSTDYADSVKGRFTISRDNAKNTLYLQMNSLKPEDTAVYYCRLVGVTWGQGTQVTVSS
Consider B28, for which, in assay [1], the binding result is “binds”.

B29: LCP0312 (VHH, not shown: small tags and cut ends)
VHH: EVQLVESGGGLVQAGGSRRLSCAVSGRTLSSFGMGWFRQAPEKPREFVAAITWGQGGTFYADSVKGRFTISRDIVKNTVYLQMNDLKPDDTGLYFCVSAPHFHEAFPSRPPAYAYWGQGTQVTVSS
As for B29, the binding entry in assay [1] and in assay [2] was “binds” each time.

B30: LCP0100 (VHH, not shown: small tags and cut ends)
VHH: EVQLVESGGGLVQAGGSLRLSCAASGRTDSMWSMGWFRQAPGQEREFVAAISWSVGTYYEDSVKGRFTLSRDDDKDTAYLEMSDLKLEDTADYYCAASTRHGTNLVLPRDYDYWGQGTQVTVSS
Turning to B30, in assay [1], the binding entry is “binds”.
